{"source": "PubChem BioAssay AID1259308 – NCATS, 2017", "aim": "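Genes whose loss raises luciferase production in HEK293 cells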 (primary screen)", "cell system": "human HEK293 embryonic kidney cells stably expressing firefly luciferase (HEK-CMV-Luc2-Hygro)", "knock-down reagent": "single siRNA against human genes, 0.8 pmol siRNA per well", "timing": "72 h", "measured": "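Reporter luminescence and viable-cell signal on separate replicate plates, given as percent of non-targeting control and median/MAD z-scores, plus per-cell luciferase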", "scale": "total luciferase, z-score: higher = more reporter protein produced", "active means": "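Active when the median/MAD z-score for overall luciferase is greater than 3; a gene was taken forward for validation with new siRNAs if at least two of its three siRNAs passed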", "calls": "active = raised luciferase; inactive = no rise", "note": "This is one part, drawn at random, of about 59,000 reagents tested. About 1,510 of them (2.6%) count as active. 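Calls use total luciferase alone and ignore viability, so some active siRNAs may act by altering cell number.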 Not all columns of the deposit are shown. Reagent sequences are not shown."}
{"gene symbol": "RNPC3", "PubChem SID": "SID160743861", "total luciferase, z-score": 2.17, "call": "inactive"}
{"gene symbol": "RNPC3", "PubChem SID": "SID160743862", "total luciferase, z-score": 0.193, "call": "inactive"}
{"gene symbol": "RNPC3", "PubChem SID": "SID160743863", "total luciferase, z-score": 0.522, "call": "inactive"}
{"gene symbol": "PNRC2", "PubChem SID": "SID160743948", "total luciferase, z-score": 1.52, "call": "inactive"}
{"gene symbol": "PNRC2", "PubChem SID": "SID160743949", "total luciferase, z-score": 3.53, "call": "active"}
{"gene symbol": "PNRC2", "PubChem SID": "SID160743950", "total luciferase, z-score": -0.239, "call": "inactive"}
{"gene symbol": "PSG8", "PubChem SID": "SID160767804", "total luciferase, z-score": -0.71, "call": "inactive"}
{"gene symbol": "PSG8", "PubChem SID": "SID160767805", "total luciferase, z-score": 2, "call": "inactive"}
{"gene symbol": "PSG8", "PubChem SID": "SID160767806", "total luciferase, z-score": 0.851, "call": "inactive"}
{"gene symbol": "CORO1A", "PubChem SID": "SID160730053", "total luciferase, z-score": 0.341, "call": "inactive"}
{"gene symbol": "CORO1A", "PubChem SID": "SID160730054", "total luciferase, z-score": 0.829, "call": "inactive"}
{"gene symbol": "CORO1A", "PubChem SID": "SID160730055", "total luciferase, z-score": 2.36, "call": "inactive"}
{"gene symbol": "KLHL29", "PubChem SID": "SID160755034", "total luciferase, z-score": 1.53, "call": "inactive"}
{"gene symbol": "KLHL29", "PubChem SID": "SID160755035", "total luciferase, z-score": -1.57, "call": "inactive"}
{"gene symbol": "KLHL29", "PubChem SID": "SID160755036", "total luciferase, z-score": 0.115, "call": "inactive"}
{"gene symbol": "PLOD1", "PubChem SID": "SID160754554", "total luciferase, z-score": -0.725, "call": "inactive"}
{"gene symbol": "PLOD1", "PubChem SID": "SID160754661", "total luciferase, z-score": 0.041, "call": "inactive"}
{"gene symbol": "PLOD1", "PubChem SID": "SID160754761", "total luciferase, z-score": 0.719, "call": "inactive"}
{"gene symbol": "RGS19", "PubChem SID": "SID160728086", "total luciferase, z-score": -0.783, "call": "inactive"}
{"gene symbol": "RGS19", "PubChem SID": "SID160728087", "total luciferase, z-score": 0.667, "call": "inactive"}
{"gene symbol": "RGS19", "PubChem SID": "SID160728088", "total luciferase, z-score": 0.232, "call": "inactive"}
{"gene symbol": "YME1L1", "PubChem SID": "SID160729106", "total luciferase, z-score": -0.766, "call": "inactive"}
{"gene symbol": "YME1L1", "PubChem SID": "SID160729107", "total luciferase, z-score": -0.658, "call": "inactive"}
{"gene symbol": "YME1L1", "PubChem SID": "SID160729108", "total luciferase, z-score": 1.52, "call": "inactive"}
{"gene symbol": "PRELID3B", "PubChem SID": "SID160739847", "total luciferase, z-score": -0.147, "call": "inactive"}
{"gene symbol": "PRELID3B", "PubChem SID": "SID160739848", "total luciferase, z-score": -2.11, "call": "inactive"}
{"gene symbol": "PRELID3B", "PubChem SID": "SID160739849", "total luciferase, z-score": -1.07, "call": "inactive"}
{"gene symbol": "PDIA2", "PubChem SID": "SID160747869", "total luciferase, z-score": 0.122, "call": "inactive"}
{"gene symbol": "PDIA2", "PubChem SID": "SID160747870", "total luciferase, z-score": -0.695, "call": "inactive"}
{"gene symbol": "PDIA2", "PubChem SID": "SID160747871", "total luciferase, z-score": 0.488, "call": "inactive"}
{"gene symbol": "IL10RB", "PubChem SID": "SID160775757", "total luciferase, z-score": -0.992, "call": "inactive"}
{"gene symbol": "IL10RB", "PubChem SID": "SID160775758", "total luciferase, z-score": -1.39, "call": "inactive"}
{"gene symbol": "IL10RB", "PubChem SID": "SID160775759", "total luciferase, z-score": -0.904, "call": "inactive"}

A portion from the list above, as a working copy:
{"gene symbol": "PDIA2", "PubChem SID": "SID160747871", "total luciferase, z-score": 0.488, "call": "inactive"}
{"gene symbol": "IL10RB", "PubChem SID": "SID160775757", "total luciferase, z-score": -0.992, "call": "inactive"}
{"gene symbol": "IL10RB", "PubChem SID": "SID160775758", "total luciferase, z-score": -1.39, "call": "inactive"}
{"gene symbol": "IL10RB", "PubChem SID": "SID160775759", "total luciferase, z-score": -0.904, "call": "inactive"}
